In PMC7592213:
Results are given in words; binding and its absence hold for the method and conditions named. Binding seen in cells or lysates may run through a third protein. Some entries that bind do so weakly or less than the wild type.

Amino acid sequences for entries named in this document (tags omitted).
UniProt Q04206: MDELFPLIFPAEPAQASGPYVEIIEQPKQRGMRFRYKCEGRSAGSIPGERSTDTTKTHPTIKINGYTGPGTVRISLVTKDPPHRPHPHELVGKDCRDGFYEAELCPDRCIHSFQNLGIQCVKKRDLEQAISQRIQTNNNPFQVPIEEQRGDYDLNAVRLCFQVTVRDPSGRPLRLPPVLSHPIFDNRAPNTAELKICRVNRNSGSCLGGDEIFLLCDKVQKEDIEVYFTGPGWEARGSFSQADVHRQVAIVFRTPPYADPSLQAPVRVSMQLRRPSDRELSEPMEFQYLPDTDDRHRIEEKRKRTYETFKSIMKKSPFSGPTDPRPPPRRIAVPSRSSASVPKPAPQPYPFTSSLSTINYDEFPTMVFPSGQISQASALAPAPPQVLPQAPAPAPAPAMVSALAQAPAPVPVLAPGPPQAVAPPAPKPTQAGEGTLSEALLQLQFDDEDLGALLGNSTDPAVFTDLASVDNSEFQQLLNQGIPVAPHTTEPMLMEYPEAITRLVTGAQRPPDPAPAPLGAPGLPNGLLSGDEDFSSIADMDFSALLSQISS
UniProt P22677: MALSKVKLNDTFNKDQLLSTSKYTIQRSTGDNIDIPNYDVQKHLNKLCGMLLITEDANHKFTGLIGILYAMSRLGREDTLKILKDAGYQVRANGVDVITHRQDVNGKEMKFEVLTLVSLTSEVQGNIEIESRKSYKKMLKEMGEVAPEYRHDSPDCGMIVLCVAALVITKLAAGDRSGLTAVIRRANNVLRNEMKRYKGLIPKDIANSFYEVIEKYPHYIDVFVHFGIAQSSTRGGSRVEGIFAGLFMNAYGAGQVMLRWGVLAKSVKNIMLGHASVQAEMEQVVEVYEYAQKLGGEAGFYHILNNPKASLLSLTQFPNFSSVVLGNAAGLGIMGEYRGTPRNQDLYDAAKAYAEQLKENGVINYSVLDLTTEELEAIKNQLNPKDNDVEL

Experiments:
[1] = target: NF-κB p65 expressed from plasmid pP65 (pcDNA3.1-p65) (UniProt Q04206); experiment: co-IP; 293T cells transfected with pEV or pP65, infected with bRSV (MOI 1) or mock infected, 24 h p.i.; RIPA lysates precleared, incubated with rabbit anti-p65 antibody overnight at 4°C, protein A magnetic beads, five washes with PBS-T; immunoblot with anti-p65, anti-N, anti-P; beads alone as control
[2] = target: NF-κB subunit p65 (endogenous, 293T cells) (human (endogenous in 293T)) (UniProt Q04206); experiment: as above

| Molecule | binding [1] | binding [2] |
| --- | --- | --- |
| bovine respiratory syncytial virus nucleoprotein (N protein) (from UniProt P22677 1-391) | binds | binds |
| bovine respiratory syncytial virus phosphoprotein (P protein) (protein, UniProt P33454 1-241) MEKFAPEFHGEDANTKATKFLESLKGKFTSSKDSRKKDSIISVNSIDIELPKESPITSTNHNINQPSEINDTIAANQVHIRKPLVSFKEELPSSENPFTKLYKETIETFDNNEEESSYSYDEINDQTNDNITARLDRIDEKLSEIIGMLHTLVVASAGPTAARDGIRDAMVGLREEMIEKIRSEALMTNDRLEAMARLRDEESEKMTKDTSDEVKLTPTSEKLNMVLEDESSDNDLSLEDF | binds | binds |
